Laboratory results reported in PubChem BioAssay AID1559 (National Center for Advancing Translational Sciences (NCATS), 2009).
Where “and” joins values, the source holds several entries; their conditions need not be identical. Equal entries are not always repeated. Inconclusive means that the source gave no clear call. Such entries were picked first, then a sample of the others. Where the call is inconclusive, the potency comes from a doubtful curve fit. Calls of active or inactive are those of the source. Calls follow the shape of the dose curve; as a rule, active = well fitted curve in the direction sought with a large enough effect; inconclusive = small, poorly fitted or top-dose-only effect, or another doubt; inactive = no such curve, though single readings can be large or run the other way.

Chains of the proteins cited; added tags and fusions are not shown. Residues count along the entry.
UniProt P10636, whole entry, looked up: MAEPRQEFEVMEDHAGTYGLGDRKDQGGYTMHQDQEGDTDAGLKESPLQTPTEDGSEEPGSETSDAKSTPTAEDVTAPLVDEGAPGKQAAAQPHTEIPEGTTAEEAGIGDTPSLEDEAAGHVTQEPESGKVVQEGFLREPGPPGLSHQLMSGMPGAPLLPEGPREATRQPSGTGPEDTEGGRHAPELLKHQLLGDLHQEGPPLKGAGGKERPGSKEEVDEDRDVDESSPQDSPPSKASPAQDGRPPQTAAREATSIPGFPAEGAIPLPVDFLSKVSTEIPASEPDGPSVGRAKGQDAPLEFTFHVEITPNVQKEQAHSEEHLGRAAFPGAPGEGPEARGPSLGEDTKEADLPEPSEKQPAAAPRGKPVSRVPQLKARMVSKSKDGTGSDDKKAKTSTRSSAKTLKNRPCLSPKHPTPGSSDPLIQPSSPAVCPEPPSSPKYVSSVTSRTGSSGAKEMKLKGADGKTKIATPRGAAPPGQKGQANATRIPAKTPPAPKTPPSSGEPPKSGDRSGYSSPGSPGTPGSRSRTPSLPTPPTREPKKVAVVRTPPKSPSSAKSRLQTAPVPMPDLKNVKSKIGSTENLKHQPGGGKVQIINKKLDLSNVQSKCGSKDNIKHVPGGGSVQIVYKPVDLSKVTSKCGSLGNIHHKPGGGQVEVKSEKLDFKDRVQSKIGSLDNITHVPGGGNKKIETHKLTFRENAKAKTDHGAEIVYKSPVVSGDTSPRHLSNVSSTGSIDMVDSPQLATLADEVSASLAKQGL
UniProt P10636, 561-689 P618L limits assumed: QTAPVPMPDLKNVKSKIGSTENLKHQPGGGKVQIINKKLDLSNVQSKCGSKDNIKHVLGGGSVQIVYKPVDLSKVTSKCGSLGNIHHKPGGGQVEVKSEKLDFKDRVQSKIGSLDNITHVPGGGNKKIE

target: Microtubule-associated protein tau (Homo sapiens) (UniProt P10636); experiment: Confirmation Concentration-Response Assay for Inhibitors of Tau Fibril Formation, Fluorescence Polarization; conditions: recombinant tau K18 P301L (four-repeat tau fragment) heparin fibrillization, Alexa594 FP; series mostly up to 100 µM
From the text: NIH Molecular Libraries Probe Production Network [MLPCN] NIH Chemical Genomics Center [NCGC] MLPCN Grant: X01 MH083262-01 Assay Provider: Carlo Ballatore, University of Pennsylvania NCGC Assay Overview: The microtubule-associated protein tau is an abundant protein in the axons of neurons that stabilizes microtubules. With its ability to modulate microtubule dynamics, tau contributes directly or indirectly, to key structural and regulatory cellular functions. Particularly important is the influence tau exerts on axonal transport, which allows signaling molecules, trophic factors and other essential cellular constituents to travel along the axons. Under pathological conditions, tau becomes sequestered into insoluble aggregates called neurofibrillary tangles. This phenomenon is believed to have pathological consequences by promoting axonal transport deficits that ultimately lead to synaptic dysfunction and neuronal loss. To identify inhibitors of tau aggregation, a heparin-induced tau fibril formation assay was used that employed a recombinantly expressed fragment of tau, K18 (Q242-E372), bearing a P301L mutation (Gustke et al. 1994; Hong et al. 1998). […] Gustke, N., B. Trinczek, et al. (1994). "Domains of tau protein and interactions with microtubules." Biochemistry 33(32): 9511-22. Hong, M., V. Zhukareva, et al. (1998). "Mutation-specific functional impairments in distinct tau isoforms of hereditary FTDP-17." Science 282(5395): 1914-7. Li, W. and V. M. Lee (2006). "Characterization of two VQIXXK motifs for tau fibrillization in vitro." Biochemistry 45(51): 15692-701. von Bergen, M., S. Barghorn, et al. (2001). "Mutations of tau protein in frontotemporal dementia promote aggregation of paired helical filaments by enhancing local beta-structure." J Biol Chem 276(51): 48165-74.
For screening, 2 uL/well human K18 P301L (15 uM unlabeled and 0.24 uM Alexa 594-labeled tau final concentrations) in reagent buffer (100 mM sodium acetate pH 7) was dispensed into black solid 1536-well plates (Grenier) using a solenoid-based dispenser. Following transfer of 23 nL compound or DMSO vehicle by a pin tool, 2 uL/well heparin (20 uM final concentration) in reagent buffer was added and the plate centrifuged 15 s at 1000 RPM. Plates were incubated 6 hr at 37 C and then 1 uL/well ThT (30 uM final concentration) was added. After a 1 hr ambient incubation, the plates were read by an Envision (Perkin Elmer) to monitor Alexa 594 FP (555 nm excitation and 632 nm emission). Keywords: NIH Roadmap, MLPCN, MLI, MLSMR, NCGC, qHTS, tau, tauopathies, Alzheimer's disease, fibril, neurodegeneration, aggregation

Row | SMILES | Potency
1 | Nc1cc(-c2ccncc2)c[nH]c1=O | inconclusive: 8.91 µM [inhibitor, full curve]
2 | Cc1ccc(S(=O)(=O)N(C)c2nc3ccccc3[nH]c2=S)cc1 | inconclusive: 70.8 µM [inhibitor, partial curve, poor fit]
3 | CCn1c(CSc2nccn2C)nc2cc(C(=O)O)ccc21 | inconclusive: 50.1 µM [inhibitor, partial curve]
4 | NCCc1ccc(O)c(O)c1 | inactive
5 | CC(C)C(C)NC(=O)CSc1nc2scc(-c3ccco3)c2c(=O)n1-c1ccccc1 (stereo not given) | inconclusive: 44.7 µM [inhibitor, full curve]
6 | COC(=O)C1CCc2sc(NC(=O)Cc3ccccc3)c(C(=O)Nc3ccc(Cl)cc3)c21 (stereo not given) | inactive
7 | COC(=O)CSc1nc2ccc(NC(=O)CSc3nnnn3Cc3ccccc3)cc2s1 | inactive
8 | O=S(=O)(c1ccc2nc(-c3ccco3)c(-c3ccco3)nc2c1)N1CCOCC1 | active: 7.94 µM
9 | COc1ccc2c(c1)c(CC(=O)Nc1ccc(C(C)=O)cc1)c(C)n2C(=O)c1ccc(Cl)cc1 | inactive
10 | Nc1nc2cc(S(=O)(=O)NC3=NCCCCC3)ccc2s1 | inconclusive: 15.8 µM [inhibitor, full curve]
11 | O=C(Cc1ccccc1)Nc1sc2c(c1C(=O)Nc1ccc(Cl)cc1)CCOC2 | inactive
12 | O=C(Cc1ccccc1)Nc1sc2c(c1C(=O)Nc1ccc(Cl)cc1)CCCC2 | inconclusive: 891 nM [inhibitor, full curve] and inactive
13 | O=C(NCCCO)Nc1ccc2nc(-c3ccco3)c(-c3ccco3)nc2c1 | active: 7.94 µM
14 | COc1ccc(NC(=O)C2CCN(S(=O)(=O)c3c(C)noc3/C=C/c3cccs3)CC2)cc1Cl | inactive
15 | CN(C)C(=O)c1ccc(-c2cc[nH]c(=O)c2N)cc1 | inconclusive: 17.8 µM [inhibitor, partial curve, poor fit]
16 | CCOC(=O)c1nn(-c2cccc(C(F)(F)F)c2)c(=O)c2c(N)scc12 | inactive
17 | O=C(O)CC1S/C(=N/N=C/c2ccc(-c3ccccc3[N+](=O)[O-])o2)NC1=O (stereo not given) | inconclusive: 8.91 µM [inhibitor, full curve]
18 | CCOC(=O)c1nn(-c2ccc(F)cc2)c(=O)c2c(N)scc12 | inconclusive: 3.55 µM [inhibitor, full curve]
19 | O=C(O)CN1C(=O)/C(=C/c2ccc(-c3cccc(Cl)c3)o2)SC1=S | inactive
20 | COc1ccc(Nc2nc(-c3sc(NC(C)=O)nc3C)cs2)cc1 | inconclusive: 50.1 µM [inhibitor, partial curve, poor fit]

Row | SMILES | Potency
21 | CN(c1ccccc1)S(=O)(=O)c1nnc(NC(=O)C2CCCCC2)s1 | inconclusive: 25.1 µM [inhibitor, full curve, poor fit]
22 | Cc1ccc(C(=O)Nc2nc(=O)n(C(=O)C3CC3)s2)cc1 | inconclusive: 6.31 µM [inhibitor, full curve]
23 | Nc1nn(-c2ccccc2)c(=O)c2c(N)scc12 | inconclusive: 6.31 µM [inhibitor, full curve]
24 | COC(=O)c1c(N)sc2c1C(C(=O)OC)CC2 (stereo not given) | inactive
25 | CCOC(=O)c1nn(-c2ccccc2)c(=O)c2c(NC(C)=O)scc12 | inconclusive: 12.6 µM [inhibitor, single point]
26 | CCOC(=O)c1nn(-c2ccc(OC)cc2)c(=O)c2c(N)scc12 | inconclusive: 39.8 µM [inhibitor, partial curve] and inconclusive: 2.82 µM [inhibitor, full curve] and inconclusive: 3.16 µM [inhibitor, full curve]
27 | CCN(CC)S(=O)(=O)c1cccc(NC(=O)Nc2cccc(C(F)(F)F)c2)c1 | active: 2.82 µM
28 | O=C(Nc1ccc(OC(F)(F)F)cc1)Nc1cccc([N+](=O)[O-])c1 | inconclusive: 39.8 µM [inhibitor, partial curve, poor fit]
29 | CCN(CC)C(=O)c1nn(-c2ccc(OC)cc2)c(=O)c2c(N)scc12 | inconclusive: 35.5 µM [inhibitor, partial curve]
30 | CCOC(=O)c1c(N)sc2c1CCOC2 | inactive
31 | Oc1ccccc1CNc1cccc2cccnc12 | inconclusive: 50.1 µM [inhibitor, partial curve, poor fit]
32 | Cc1ccc(NCc2cc3cc4c(cc3n(CC(=O)Nc3ccc(C)cc3)c2=O)OCCO4)cc1 | inactive
33 | CN(C)S(=O)(=O)c1cccc(N=C2NN=C(c3ccccc3)CS2)c1 | inconclusive: 11.2 µM [inhibitor, partial curve, poor fit]
34 | O=C(Nc1sc2c(c1C(=O)Nc1cccc(Cl)c1)CCCC2)c1cccs1 | inconclusive: 4.47 µM [inhibitor, full curve]
35 | Cc1ccc(C2=NNC(=Nc3ccc(F)cc3)SC2)cc1 | inconclusive: 70.8 µM [inhibitor, partial curve, poor fit]
36 | CN(C)c1ccc(-c2cc[nH]c(=O)c2N)cc1 | inconclusive: 14.1 µM [inhibitor, partial curve]
37 | CC(=O)Nc1ccc(C2=NNC(=Nc3ccc(S(=O)(=O)N4CCOCC4)cc3)SC2)cc1 | inconclusive: 0.891 µM [activator, full curve]
38 | O=C(O)CSc1cc(NS(=O)(=O)c2cccc([N+](=O)[O-])c2)c2ccccc2c1O | inconclusive: 2.82 µM [inhibitor, full curve]
39 | CCOC(=O)c1nn(-c2ccccc2)c(=O)c2c(NC(=O)c3ccccc3)scc12 | inactive
40 | Nc1ccc(-c2ccc3ccccc3n2)cc1 | inactive

Nothing new here: two of the compounds above.
Row | SMILES | Potency
28 | O=C(Nc1ccc(OC(F)(F)F)cc1)Nc1cccc([N+](=O)[O-])c1 | inconclusive: 39.8 µM [inhibitor, partial curve, poor fit]
29 | CCN(CC)C(=O)c1nn(-c2ccc(OC)cc2)c(=O)c2c(N)scc12 | inconclusive: 35.5 µM [inhibitor, partial curve]
